No constants are given. Whether binding was seen depends on the method and setting. Binding seen in cells or lysates may run through a third protein. These calls come from enrichment with a bait or labelling near it, and not all partners need be listed. Sequences can lack the tags named with a protein.

Chains of the proteins cited; added tags and fusions are not shown.
UniProt P0A7Z7: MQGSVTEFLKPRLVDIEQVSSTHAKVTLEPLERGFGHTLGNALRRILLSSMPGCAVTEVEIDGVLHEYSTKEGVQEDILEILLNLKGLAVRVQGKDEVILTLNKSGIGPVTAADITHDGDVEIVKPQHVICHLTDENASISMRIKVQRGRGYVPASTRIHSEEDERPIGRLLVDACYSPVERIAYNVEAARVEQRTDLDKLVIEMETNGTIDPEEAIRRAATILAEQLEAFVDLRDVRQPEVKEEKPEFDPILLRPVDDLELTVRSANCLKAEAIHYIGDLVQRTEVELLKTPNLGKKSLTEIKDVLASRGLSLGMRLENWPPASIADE
UniProt P06173: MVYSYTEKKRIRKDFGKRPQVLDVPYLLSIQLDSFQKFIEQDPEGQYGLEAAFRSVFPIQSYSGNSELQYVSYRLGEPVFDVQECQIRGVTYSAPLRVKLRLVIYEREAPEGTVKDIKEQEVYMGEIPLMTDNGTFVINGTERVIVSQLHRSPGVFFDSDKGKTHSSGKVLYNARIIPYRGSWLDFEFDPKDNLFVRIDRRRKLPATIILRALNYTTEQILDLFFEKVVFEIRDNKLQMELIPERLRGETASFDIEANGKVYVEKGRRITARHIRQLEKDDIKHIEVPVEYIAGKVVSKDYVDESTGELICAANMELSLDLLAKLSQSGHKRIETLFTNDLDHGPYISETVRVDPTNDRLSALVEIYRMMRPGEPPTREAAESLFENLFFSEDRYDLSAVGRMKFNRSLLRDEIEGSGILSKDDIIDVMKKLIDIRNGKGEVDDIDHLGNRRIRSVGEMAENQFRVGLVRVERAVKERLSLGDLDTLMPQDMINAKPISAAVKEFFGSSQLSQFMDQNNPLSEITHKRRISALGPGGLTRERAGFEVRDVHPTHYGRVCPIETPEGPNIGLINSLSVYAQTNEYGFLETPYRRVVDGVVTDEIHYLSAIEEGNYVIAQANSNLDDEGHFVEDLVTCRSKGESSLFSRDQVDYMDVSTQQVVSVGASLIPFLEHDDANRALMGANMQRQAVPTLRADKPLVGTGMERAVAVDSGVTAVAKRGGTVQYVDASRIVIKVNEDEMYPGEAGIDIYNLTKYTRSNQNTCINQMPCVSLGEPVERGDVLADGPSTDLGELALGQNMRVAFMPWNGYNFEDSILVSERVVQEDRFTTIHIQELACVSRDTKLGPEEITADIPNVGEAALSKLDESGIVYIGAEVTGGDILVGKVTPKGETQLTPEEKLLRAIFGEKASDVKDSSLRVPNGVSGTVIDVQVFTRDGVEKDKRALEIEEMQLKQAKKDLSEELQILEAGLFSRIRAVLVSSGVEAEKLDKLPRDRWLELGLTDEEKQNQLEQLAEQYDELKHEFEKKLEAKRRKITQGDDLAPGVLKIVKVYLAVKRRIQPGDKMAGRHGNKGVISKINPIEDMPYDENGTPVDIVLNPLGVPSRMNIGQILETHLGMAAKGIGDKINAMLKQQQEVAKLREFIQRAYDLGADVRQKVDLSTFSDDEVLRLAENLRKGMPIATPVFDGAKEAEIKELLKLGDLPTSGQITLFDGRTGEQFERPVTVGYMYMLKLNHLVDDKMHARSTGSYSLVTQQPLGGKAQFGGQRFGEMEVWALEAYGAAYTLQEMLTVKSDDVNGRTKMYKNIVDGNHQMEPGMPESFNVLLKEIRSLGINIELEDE
UniProt P0A2R4: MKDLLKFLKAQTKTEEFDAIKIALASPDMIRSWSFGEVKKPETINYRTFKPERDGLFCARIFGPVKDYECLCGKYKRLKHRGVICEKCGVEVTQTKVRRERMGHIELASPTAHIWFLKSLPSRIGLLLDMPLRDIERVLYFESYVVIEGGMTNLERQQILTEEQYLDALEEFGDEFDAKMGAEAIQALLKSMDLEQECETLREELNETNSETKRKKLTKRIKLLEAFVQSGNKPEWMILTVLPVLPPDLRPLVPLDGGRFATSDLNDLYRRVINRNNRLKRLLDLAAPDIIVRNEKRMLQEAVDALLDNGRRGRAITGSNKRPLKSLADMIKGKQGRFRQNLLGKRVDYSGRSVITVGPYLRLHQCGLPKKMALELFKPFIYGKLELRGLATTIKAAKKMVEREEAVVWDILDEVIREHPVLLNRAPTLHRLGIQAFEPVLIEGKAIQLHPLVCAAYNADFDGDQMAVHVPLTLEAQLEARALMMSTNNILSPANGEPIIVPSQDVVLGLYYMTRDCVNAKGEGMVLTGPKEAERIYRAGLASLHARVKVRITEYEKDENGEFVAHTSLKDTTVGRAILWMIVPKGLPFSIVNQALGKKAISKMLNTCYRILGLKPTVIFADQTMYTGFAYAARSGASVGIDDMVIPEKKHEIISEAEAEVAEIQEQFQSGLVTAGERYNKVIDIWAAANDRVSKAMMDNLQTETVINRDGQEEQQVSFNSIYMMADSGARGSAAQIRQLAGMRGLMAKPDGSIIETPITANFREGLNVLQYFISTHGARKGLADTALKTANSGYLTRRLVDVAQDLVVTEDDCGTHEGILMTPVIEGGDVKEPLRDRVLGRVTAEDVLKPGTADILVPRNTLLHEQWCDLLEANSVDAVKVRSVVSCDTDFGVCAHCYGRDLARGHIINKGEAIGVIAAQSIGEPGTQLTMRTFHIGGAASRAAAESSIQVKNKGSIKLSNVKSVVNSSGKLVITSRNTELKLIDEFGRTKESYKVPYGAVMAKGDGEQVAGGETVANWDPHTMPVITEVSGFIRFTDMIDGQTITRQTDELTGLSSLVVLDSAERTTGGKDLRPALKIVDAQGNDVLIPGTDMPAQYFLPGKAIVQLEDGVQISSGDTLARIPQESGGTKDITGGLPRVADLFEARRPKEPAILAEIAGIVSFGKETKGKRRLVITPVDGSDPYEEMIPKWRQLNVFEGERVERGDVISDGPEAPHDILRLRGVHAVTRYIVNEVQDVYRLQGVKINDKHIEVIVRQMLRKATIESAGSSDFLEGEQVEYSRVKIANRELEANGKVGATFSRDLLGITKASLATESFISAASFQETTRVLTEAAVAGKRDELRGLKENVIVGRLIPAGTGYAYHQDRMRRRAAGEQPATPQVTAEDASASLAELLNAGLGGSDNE
UniProt Q7CQ01: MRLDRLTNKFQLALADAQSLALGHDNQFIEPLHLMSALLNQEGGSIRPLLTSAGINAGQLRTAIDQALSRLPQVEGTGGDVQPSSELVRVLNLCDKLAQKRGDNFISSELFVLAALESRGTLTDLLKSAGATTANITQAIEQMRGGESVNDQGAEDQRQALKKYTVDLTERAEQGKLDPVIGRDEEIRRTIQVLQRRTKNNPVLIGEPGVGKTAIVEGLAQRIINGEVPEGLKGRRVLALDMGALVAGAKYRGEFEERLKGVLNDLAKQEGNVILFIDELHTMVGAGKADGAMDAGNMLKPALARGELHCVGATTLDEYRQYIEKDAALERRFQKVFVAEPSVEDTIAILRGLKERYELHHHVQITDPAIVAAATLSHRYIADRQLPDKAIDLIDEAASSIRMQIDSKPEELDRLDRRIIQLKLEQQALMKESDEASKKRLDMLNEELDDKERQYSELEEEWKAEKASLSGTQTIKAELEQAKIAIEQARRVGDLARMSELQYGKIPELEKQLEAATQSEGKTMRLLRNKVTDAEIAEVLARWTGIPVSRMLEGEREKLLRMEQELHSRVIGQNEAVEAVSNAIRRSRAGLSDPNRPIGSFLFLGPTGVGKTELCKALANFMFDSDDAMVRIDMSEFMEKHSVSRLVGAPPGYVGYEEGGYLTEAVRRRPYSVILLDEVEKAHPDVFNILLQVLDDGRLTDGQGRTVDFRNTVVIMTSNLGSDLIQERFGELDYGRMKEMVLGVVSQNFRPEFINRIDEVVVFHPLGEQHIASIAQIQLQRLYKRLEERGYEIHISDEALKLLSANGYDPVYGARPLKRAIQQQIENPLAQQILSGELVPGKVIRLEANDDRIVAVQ
UniProt P0A2E3: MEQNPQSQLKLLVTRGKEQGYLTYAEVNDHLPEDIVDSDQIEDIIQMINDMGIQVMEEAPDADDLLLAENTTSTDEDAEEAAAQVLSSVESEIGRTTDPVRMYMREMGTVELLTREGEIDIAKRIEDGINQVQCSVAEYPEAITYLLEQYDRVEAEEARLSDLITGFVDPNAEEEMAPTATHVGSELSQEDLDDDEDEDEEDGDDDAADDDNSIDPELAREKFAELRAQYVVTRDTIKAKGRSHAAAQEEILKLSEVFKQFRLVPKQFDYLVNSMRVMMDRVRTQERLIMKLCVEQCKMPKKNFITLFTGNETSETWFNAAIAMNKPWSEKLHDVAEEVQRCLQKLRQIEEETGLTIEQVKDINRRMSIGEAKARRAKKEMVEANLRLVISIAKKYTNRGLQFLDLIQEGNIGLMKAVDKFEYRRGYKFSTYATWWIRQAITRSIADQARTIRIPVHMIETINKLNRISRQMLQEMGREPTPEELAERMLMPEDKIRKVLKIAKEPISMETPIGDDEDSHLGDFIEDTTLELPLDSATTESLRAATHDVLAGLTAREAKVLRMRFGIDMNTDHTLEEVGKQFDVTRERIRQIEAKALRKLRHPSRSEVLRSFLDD

The target of this assay is T1, MBP-InvF (InvF fused to the maltose-binding protein) (Salmonella enterica serovar Typhimurium) (UniProt P69343).
T1 sequence: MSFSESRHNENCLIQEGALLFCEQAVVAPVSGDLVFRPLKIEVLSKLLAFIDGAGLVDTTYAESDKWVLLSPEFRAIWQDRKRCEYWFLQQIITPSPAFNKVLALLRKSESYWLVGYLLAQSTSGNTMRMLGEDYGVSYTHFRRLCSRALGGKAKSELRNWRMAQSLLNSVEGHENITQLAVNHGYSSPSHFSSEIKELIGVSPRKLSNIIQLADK
Briefly: affinity purification with mass spectrometry; only the target purified.

Take “ATP-dependent Clp protease ATP-binding subunit ClpA (from UniProt A0A0F6AZ85)”: the binding entry is listed as “binds”.

For the substance “DNA-directed RNA polymerase subunit alpha (from UniProt P0A7Z7 1-329)”, the binding entry is listed as “binds”.

“DNA-directed RNA polymerase subunit beta (from UniProt P06173 1-1342)”: the binding entry is given as “binds”.

“DNA-directed RNA polymerase subunit beta’ (from UniProt P0A2R4 1-1407)”: the binding result is “binds”.

As for “Protein disaggregation chaperon ClpB (from UniProt Q7CQ01 1-857)”, the binding result is reported as “binds”.

For “RNA polymerase sigma factor RpoD (from UniProt P0A2E3 1-615)”, the binding entry is listed as “binds”.

The record behind these values is article PMC10761746 (Scientific Reports, 2024).
